Source: patent publication US9260425B2 (Genetech, Inc., priority 2011, dated 2016)
The match of structure and compound is tentative.

Amino acid sequences for entries named in this document (tags omitted).
UniProt P11309, whole entry: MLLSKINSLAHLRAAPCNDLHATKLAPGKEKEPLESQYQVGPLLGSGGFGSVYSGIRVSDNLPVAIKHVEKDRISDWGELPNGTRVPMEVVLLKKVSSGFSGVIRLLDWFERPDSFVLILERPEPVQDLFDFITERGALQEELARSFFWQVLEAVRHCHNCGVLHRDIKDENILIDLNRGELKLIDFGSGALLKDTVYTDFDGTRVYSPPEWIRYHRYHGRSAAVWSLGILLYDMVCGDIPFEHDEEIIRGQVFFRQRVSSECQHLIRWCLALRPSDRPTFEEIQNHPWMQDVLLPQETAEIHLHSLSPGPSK

Biological target: Pim-1 (Homo sapiens (Human), UniProt P11309)
Assay: Pim kinase binding activity assay (Example 901), PIM-1 enzyme, Caliper microfluidic peptide phosphorylation
Type: biochemical
Conditions: read-out: Pim-1 Ki; 20 pM PIM-1, 10 μM ATP, 1 μM FAM-peptide, 90 minutes at room temperature

Ki: 0.051 nM
Compound: Cc1ccc(-c2n[nH]c3cnc(-c4cnn(C)c4)cc23)nc1N1CCC(N)CC1
